Assay results taken from publication PMC12484294.

Target: T1, ZO-2 (Zonula occludens-2) (dog (endogenous in MDCK)) (UniProt Q95168)
T1 sequence: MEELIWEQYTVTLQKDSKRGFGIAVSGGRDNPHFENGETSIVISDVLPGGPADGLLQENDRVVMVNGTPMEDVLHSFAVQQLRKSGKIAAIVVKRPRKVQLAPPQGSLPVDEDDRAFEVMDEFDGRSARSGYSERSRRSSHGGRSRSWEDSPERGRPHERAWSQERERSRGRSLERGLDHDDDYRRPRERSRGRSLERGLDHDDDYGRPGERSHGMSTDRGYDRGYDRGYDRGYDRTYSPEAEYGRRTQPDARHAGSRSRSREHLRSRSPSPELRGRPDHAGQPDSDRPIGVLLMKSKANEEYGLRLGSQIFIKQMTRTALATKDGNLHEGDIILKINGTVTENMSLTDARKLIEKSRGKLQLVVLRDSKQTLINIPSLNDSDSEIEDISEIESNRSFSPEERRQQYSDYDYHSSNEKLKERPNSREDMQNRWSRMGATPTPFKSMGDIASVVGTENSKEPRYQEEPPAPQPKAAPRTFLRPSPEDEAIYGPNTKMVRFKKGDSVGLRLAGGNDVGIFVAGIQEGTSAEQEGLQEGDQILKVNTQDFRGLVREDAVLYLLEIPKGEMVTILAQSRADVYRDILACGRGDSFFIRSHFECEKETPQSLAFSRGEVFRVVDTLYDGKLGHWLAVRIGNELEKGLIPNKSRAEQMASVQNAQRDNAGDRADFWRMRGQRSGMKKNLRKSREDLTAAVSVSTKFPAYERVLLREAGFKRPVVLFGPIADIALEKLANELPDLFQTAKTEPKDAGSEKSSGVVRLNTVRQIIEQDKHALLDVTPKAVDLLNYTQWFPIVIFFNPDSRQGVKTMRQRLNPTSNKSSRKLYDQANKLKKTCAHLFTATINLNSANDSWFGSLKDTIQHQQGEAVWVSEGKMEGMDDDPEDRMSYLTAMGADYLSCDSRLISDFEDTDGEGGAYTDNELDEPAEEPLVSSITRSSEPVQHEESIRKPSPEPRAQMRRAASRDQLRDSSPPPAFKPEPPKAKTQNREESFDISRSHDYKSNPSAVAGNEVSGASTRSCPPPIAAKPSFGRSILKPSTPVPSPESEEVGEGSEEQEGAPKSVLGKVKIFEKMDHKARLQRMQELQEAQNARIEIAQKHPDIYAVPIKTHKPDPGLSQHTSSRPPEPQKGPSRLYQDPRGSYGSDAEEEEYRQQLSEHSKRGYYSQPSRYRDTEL
Experiment: co-IP; ZO-2 immunoprecipitated with anti-ZO-2 (1 ul per 300 ug protein) from lysate of parental MDCK cells; buffer 50 mM Tris-HCl pH 7.5, 150 mM NaCl, 1% NP-40, protease inhibitors; Western blot of the precipitate; subconfluent or proliferating cells (KIF14, NuMA, p-Aurora, TPX2) or confluent cells (IFT57); pre-immune serum as control

| binding | Substance |
| --- | --- |
| binds | NuMA (Nuclear Mitotic Apparatus) (dog (endogenous in MDCK)) |
| no binding | TPX2 (dog (endogenous in MDCK)) |
| binds | kinesin KIF14 (dog (endogenous in MDCK)) |

Results are given in words; binding and its absence hold for the method and conditions named. Binding seen in cells or lysates may run through a third protein. Binding can be weak; no strength is given.
